Results as given in publication PMC8506602.
These are yes or no findings as the source states them, for the method shown. Binding seen in cells or lysates may run through a third protein. Some results given as binding are weak or reduced against the parent protein; the word gives no strength.

Protein sequences, listed by entry. Tags and fused reporters are not part of them. Lines headed by an entry give the natural chain unless they say otherwise; changes in a name come on top.
UniProt P30559: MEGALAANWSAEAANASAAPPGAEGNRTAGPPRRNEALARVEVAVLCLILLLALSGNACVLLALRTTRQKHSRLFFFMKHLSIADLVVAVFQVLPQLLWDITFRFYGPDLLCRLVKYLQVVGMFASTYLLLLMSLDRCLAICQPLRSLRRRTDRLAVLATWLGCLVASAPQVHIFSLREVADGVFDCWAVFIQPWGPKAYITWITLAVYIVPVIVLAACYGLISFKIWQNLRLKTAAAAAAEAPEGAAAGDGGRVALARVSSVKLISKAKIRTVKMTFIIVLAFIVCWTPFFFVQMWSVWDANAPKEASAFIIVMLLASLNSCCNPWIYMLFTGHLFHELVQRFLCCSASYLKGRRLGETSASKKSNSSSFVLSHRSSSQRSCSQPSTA
UniProt P49407: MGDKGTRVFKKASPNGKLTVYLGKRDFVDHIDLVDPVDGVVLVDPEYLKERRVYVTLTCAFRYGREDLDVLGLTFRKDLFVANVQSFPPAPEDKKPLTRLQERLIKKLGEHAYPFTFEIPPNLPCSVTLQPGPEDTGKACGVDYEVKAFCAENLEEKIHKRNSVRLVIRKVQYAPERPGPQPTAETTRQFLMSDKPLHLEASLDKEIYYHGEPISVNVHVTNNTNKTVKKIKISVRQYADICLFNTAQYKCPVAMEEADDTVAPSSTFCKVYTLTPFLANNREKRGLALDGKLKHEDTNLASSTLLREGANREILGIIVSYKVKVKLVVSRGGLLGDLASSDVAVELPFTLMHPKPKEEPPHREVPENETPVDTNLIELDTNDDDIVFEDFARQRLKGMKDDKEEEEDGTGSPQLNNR

How the values were obtained:
Assay in all cases: FRET or BRET; living HEK293T cells co-transfected with WT or variant OXTR-GFP10 and β-arrestin-1-Rluc8 or β-arrestin-2-Rluc8 (15:1 w/w); oxytocin dose-response; 10 μM coelenterazine 400a in HBSS with 20 mM HEPES; BRET ratio 520 nm/400 nm averaged over 78-182 s; normalised to WT at the highest oxytocin concentration
[1] = molecular target: E339K OXTR-GFP10 (human) (UniProt P30559)
[2] = molecular target: L206V OXTR-GFP10 (human) (UniProt P30559)
[3] = molecular target: P108A OXTR-GFP10 (human) (UniProt P30559)
[4] = molecular target: R376G OXTR-GFP10 (human) (UniProt P30559)
[5] = molecular target: V281M OXTR-GFP10 (human) (UniProt P30559)
[6] = molecular target: V45L OXTR-GFP10 (human) (UniProt P30559)
[7] = molecular target: wild-type (WT) OXTR-GFP10 fusion (oxytocin receptor) (human) (UniProt P30559)

Measured: binding

β-arrestin-1-Rluc8 fusion (from UniProt P49407 1-418)
binds: all assays above

β-arrestin-2-Rluc8 fusion (from UniProt P32121 1-409)
binds: all assays above
